Assay results published in PubChem BioAssay AID504467 (National Center for Advancing Translational Sciences (NCATS), 2011).
Out of some 330,000 compounds screened, about 7,700 (2.3%) were called active. The shares of active, inactive and inconclusive entries below differ from those in the screen. Calls come from the whole dose curve; as a rule, active = well fitted inhibition curve with a large enough effect; inconclusive = small, poorly fitted or top-dose-only effect, or effect the other way; inactive = flat fitted curve, though single readings scatter. Potencies of inconclusive entries are doubtful fits and often do not repeat.

Experiment: qHTS screen for small molecules that inhibit ELG1-dependent DNA repair in human embryonic kidney (HEK293T) cells expressing luciferase-tagged ELG1; note: nearly all actives have a fitted effect of over 55% in size
Details: HEK293T ELG1-luciferase reporter, luminescence, 16 h, DNA damage induced by 5-fluorouridine; activity change, negative = inhibition: at 46.1 µM (top of the series)
Outline: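 Cells (2,000 per well) received 5-fluorouridine plus test compound or DMSO and were incubated 16 hr at 37 °C, 5% CO2. Luciferase activity was read by luminescence 30 min after ONE-Glo addition; signal suppression marked inhibition of damage-induced ELG1 function.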
% is set by controls: 0 for no effect and ±100 for the full control effect; potency is the fitted concentration of half-maximal effect.

Compound | activity change, negative = inhibition | Potency
Cc1cccc(C)c1NC(=O)CN(C)C(=O)CSC(=S)N1CCCC1 | inactive: 4.21% | 
CC1CC(C)CN(C(=O)CSc2nnc(-c3ccc(Cl)cc3)o2)C1 (stereo not given) | inactive: -18.6% | 
Oc1c(N=NC(=S)Nc2ccccc2F)c2ccccc2n1Cc1cccc(Cl)c1 |  | inconclusive: 6.51 µM [inhibitor, single point]
CC(=O)Nc1ccc(S(=O)(=O)N2CCN(C(=O)c3ncoc3-c3ccccc3)CC2)cc1 | inactive: -0.829% | 
CCOCCCn1c(SCC(=O)Nc2ccc(OC)cc2)nc2ccccc2c1=O |  | inconclusive: 18.3 µM [inhibitor, partial curve, poor fit]
CCC(C)C1NC(=S)N(C2CCCCC2)C1=O (stereo not given) | inactive: -6.01% | 
Cc1cccc(C)c1OCC(=O)Nc1ncn[nH]1 | inactive: 14.5% | 
CC(=O)N1CCSc2ccc(S(=O)(=O)Nc3ccc(C)cc3)cc21 | inactive: -2.14% | 
COC(=O)c1cc2ccsc2n1CC(=O)Nc1cc(Cl)ccc1OC |  | inconclusive: 6.31 µM [inhibitor, single point]
COc1cc(C)c(CN2CCN(CC(=O)Nc3ccccc3C(=O)NC3CC3)CC2)cc1OC |  | active: 3.66 µM
O=C(Nc1ccc(S(=O)(=O)N2CCOCC2)cc1)c1cc(S(=O)(=O)N2CCOCC2)ccc1Cl | inactive: -19.2% | 
CCOc1ccc(NC(=O)CSc2nnnn2-c2ccc(C(N)=O)cc2)cc1 |  | inconclusive: 25.9 µM [activator, single point]
Cc1cc(C)n2nc(C(=O)NNC(=O)c3ccc(Cl)cc3)nc2n1 |  | inconclusive: 25.9 µM [activator, single point]
COc1ccc2oc(C(=O)NCC(Cc3ccccc3)N(C)C)c(C)c2c1 (stereo not given) |  | inconclusive: 20.6 µM [activator, single point]
CCOC(=O)c1c(C)nc2sc3c(=O)n(-c4ccc(C(C)=O)cc4)nnc3c2c1-c1ccc(Cl)cc1 |  | inconclusive: 0.0651 µM [activator, partial curve, poor fit]
CCCCOC(=O)/C=C/c1ccc(OC(=O)OC)c(OC(=O)OC)c1 |  | inconclusive: 14.6 µM [activator, partial curve, poor fit]
O=C(CN1C(=O)NC2(CCCC2)C1=O)Nc1ccc(F)c([N+](=O)[O-])c1 | inactive: 5.76% | 
COCCCNC(=S)Nc1cccc(SC)c1 | inactive: -15.8% | 
CC(C)c1ccc(NC(=O)[C@@H](C)NC(=O)[C@@H]2Cc3ccccc3CN2)cc1 |  | inconclusive: 16.4 µM [activator, partial curve, poor fit]
CS(=O)(=O)Nc1ccc(S(=O)(=O)N2CCCCCC2)cc1 | inactive: 0.182% | 
Fc1ccccc1-c1nc(NCc2ccco2)c2ccccc2n1 |  | inconclusive: 20.6 µM [inhibitor, single point]
Fc1cc(NCc2ccccc2)nc(NCc2ccccc2)n1 |  | inconclusive: 18.4 µM [activator, single point]
Cc1ccccc1NC1=C(Cl)C(=O)N(C2CCCCC2)C1=O | inactive: -4.3% | 
COc1ccc(OC)c(Nc2ncnc3c2cnn3-c2ccccc2)c1 |  | inconclusive: 29.1 µM [activator, partial curve, poor fit]

Compound | activity change, negative = inhibition | Potency
O=C(CSc1nnc(-c2ccccc2F)o1)N1CCNC1=O |  | inconclusive: 16.4 µM [activator, partial curve]
CCCOC(=O)NC(CC)COC(=O)Nc1cc(C)ccc1C (stereo not given) |  | inconclusive: 14.6 µM [inhibitor, partial curve, poor fit]
CC(C)C(NC(=O)c1ccccc1F)C(=O)NCCc1ccccn1 (stereo not given) |  | inconclusive: 2.59 µM [inhibitor, partial curve, poor fit]
Cc1ccc(CNC(=O)COc2ccc(S(=O)(=O)N3CCCC3)cc2)cc1 | inactive: -1.9% | 
COc1ccc(S(=O)(=O)Nc2cccc3c2O[C@H](CN(C)S(=O)(=O)c2cn(C)cn2)[C@@H](C)CN([C@H](C)CO)C3=O)cc1 | inactive: 5.92% | 
COc1ccc(CC(=O)NCc2csc(-c3cccs3)n2)cc1OC |  | inconclusive: 18.3 µM [inhibitor, single point]
O=C(Nc1ccccc1Cl)C(Cl)C(=O)c1ccccc1 (stereo not given) | inactive: 7.07% | 
CC(C)OCCCN1CC(=O)N2C(c3cccc([N+](=O)[O-])c3)c3[nH]c4ccccc4c3C[C@H]2C1=O (stereo not given in full) |  | inconclusive: 32.6 µM [inhibitor, single point]
CCN(CC)CCCN=Cc1c(-c2ccccc2)[nH]n(-c2nc3ccccc3s2)c1=O |  | inconclusive: 29.1 µM [activator, single point]
COc1ccc(-c2coc3cc(O)ccc3c2=O)cc1O |  | inconclusive: 9.2 µM [activator, partial curve]
OC(Cc1nc2ccccc2[nH]1)c1ccccc1Cl (stereo not given) |  | inconclusive: 14.6 µM [activator, partial curve]
Cc1ncc([N+](=O)[O-])n1Cc1ccccc1 |  | inconclusive: 25.9 µM [activator, single point]
O=C(CSc1nn(-c2ccc(F)cc2)c(=S)s1)N1CCN(C(=O)c2ccco2)CC1 |  | inconclusive: 29.1 µM [inhibitor, partial curve, poor fit]
COc1ccc(NC(=O)C2=CC(c3ccc(C)cc3)=NS(=O)(=O)N2C)cc1OC |  | inconclusive: 18.3 µM [inhibitor, single point]
O=C(NCCCN1CCCC1=O)C(=O)NCC1OCCN1S(=O)(=O)c1ccc(Cl)cc1 (stereo not given) | inactive: -1.67% | 
Cc1ncc(CO)c(/C=N/NC(=O)c2ccoc2C)c1O |  | inconclusive: 18.3 µM [activator, partial curve, poor fit]
O=C(Nc1ccc2c(c1)Cc1ccccc1-2)c1ccncc1 |  | inconclusive: 3.66 µM [activator, single point]
Cc1ccccc1OCC(=O)Nc1cccc(S(=O)(=O)NC2=NCCC2)c1 |  | inconclusive: 23.1 µM [activator, partial curve]
Oc1[nH]c2ccccc2c1/C=N/c1nccs1 |  | inconclusive: 18.4 µM [activator, partial curve]
COc1cc(C(=O)Nc2ccc3nc(N4CCOCC4)sc3c2)cc(OC)c1OC | inactive: -19.6% | 
CCCc1cc(=O)oc2cc(OCC(=O)N3CCN(C(=O)C4COc5ccccc5O4)CC3)ccc12 (stereo not given) |  | active: 3.66 µM
COCCNC(=O)c1cc2c(=O)n3cccc(C)c3nc2n1C |  | inconclusive: 6.51 µM [inhibitor, partial curve]
Cc1ccccc1N/N=C/c1c(C)nc2ccccn12 | inactive: 1.84% | 
Cc1ccnc(NC(=O)c2ccc(S(=O)(=O)N3CCCCCC3)cc2)c1 |  | inconclusive: 2.31 µM [activator, partial curve]

A second format for 21 compounds above:

| Compound | activity change, negative = inhibition | Potency |
| --- | --- | --- |
| CCOc1ccc(NC(=O)CSc2nnnn2-c2ccc(C(N)=O)cc2)cc1 |  | inconclusive: 25.9 µM [activator, single point] |
| Cc1cc(C)n2nc(C(=O)NNC(=O)c3ccc(Cl)cc3)nc2n1 |  | inconclusive: 25.9 µM [activator, single point] |
| COc1ccc2oc(C(=O)NCC(Cc3ccccc3)N(C)C)c(C)c2c1 (stereo not given) |  | inconclusive: 20.6 µM [activator, single point] |
| CCOC(=O)c1c(C)nc2sc3c(=O)n(-c4ccc(C(C)=O)cc4)nnc3c2c1-c1ccc(Cl)cc1 |  | inconclusive: 0.0651 µM [activator, partial curve, poor fit] |
| CCCCOC(=O)/C=C/c1ccc(OC(=O)OC)c(OC(=O)OC)c1 |  | inconclusive: 14.6 µM [activator, partial curve, poor fit] |
| O=C(CN1C(=O)NC2(CCCC2)C1=O)Nc1ccc(F)c([N+](=O)[O-])c1 | inactive: 5.76% |  |
| COCCCNC(=S)Nc1cccc(SC)c1 | inactive: -15.8% |  |
| CC(C)c1ccc(NC(=O)[C@@H](C)NC(=O)[C@@H]2Cc3ccccc3CN2)cc1 |  | inconclusive: 16.4 µM [activator, partial curve, poor fit] |
| CS(=O)(=O)Nc1ccc(S(=O)(=O)N2CCCCCC2)cc1 | inactive: 0.182% |  |
| Fc1ccccc1-c1nc(NCc2ccco2)c2ccccc2n1 |  | inconclusive: 20.6 µM [inhibitor, single point] |
| Fc1cc(NCc2ccccc2)nc(NCc2ccccc2)n1 |  | inconclusive: 18.4 µM [activator, single point] |
| Cc1ccccc1NC1=C(Cl)C(=O)N(C2CCCCC2)C1=O | inactive: -4.3% |  |
| COc1ccc(OC)c(Nc2ncnc3c2cnn3-c2ccccc2)c1 |  | inconclusive: 29.1 µM [activator, partial curve, poor fit] |
| O=C(CSc1nnc(-c2ccccc2F)o1)N1CCNC1=O |  | inconclusive: 16.4 µM [activator, partial curve] |
| CCCOC(=O)NC(CC)COC(=O)Nc1cc(C)ccc1C (stereo not given) |  | inconclusive: 14.6 µM [inhibitor, partial curve, poor fit] |
| CC(C)C(NC(=O)c1ccccc1F)C(=O)NCCc1ccccn1 (stereo not given) |  | inconclusive: 2.59 µM [inhibitor, partial curve, poor fit] |
| Cc1ccc(CNC(=O)COc2ccc(S(=O)(=O)N3CCCC3)cc2)cc1 | inactive: -1.9% |  |
| COc1ccc(S(=O)(=O)Nc2cccc3c2O[C@H](CN(C)S(=O)(=O)c2cn(C)cn2)[C@@H](C)CN([C@H](C)CO)C3=O)cc1 | inactive: 5.92% |  |
| COc1ccc(CC(=O)NCc2csc(-c3cccs3)n2)cc1OC |  | inconclusive: 18.3 µM [inhibitor, single point] |
| O=C(Nc1ccccc1Cl)C(Cl)C(=O)c1ccccc1 (stereo not given) | inactive: 7.07% |  |
| CC(C)OCCCN1CC(=O)N2C(c3cccc([N+](=O)[O-])c3)c3[nH]c4ccccc4c3C[C@H]2C1=O (stereo not given in full) |  | inconclusive: 32.6 µM [inhibitor, single point] |

The list continues.

Compound | activity change, negative = inhibition | Potency
O=C(CSc1nc2scc(-c3ccco3)c2c(=O)n1-c1ccccc1)N1CCOCC1 |  | inconclusive: 29.1 µM [inhibitor, single point]
CCOC(=O)CSc1n[nH]c(=S)s1 |  | inconclusive: 29.1 µM [inhibitor, single point]
O=C(Cc1csc(NC(=O)Nc2ccc(Cl)cc2)n1)NCc1cccnc1 |  | inconclusive: 10.3 µM [activator, single point]
CCCCNS(=O)(=O)CCNCCc1ccccc1 |  | inconclusive: 32.6 µM [activator, partial curve, poor fit]
CC(C)C(=O)N1CCN(c2nc(-c3ccccc3)c3c(c2C#N)CC(C)(C)OC3)CC1 |  | inconclusive: 18.4 µM [inhibitor, single point]
Cc1ccc(C)c(Nc2ncnc3nc[nH]c23)c1 | inactive: 10.8% | 
Cc1ccc(-c2nc(CS(=O)(=O)CC(=O)N3CCc4ccccc4C3)c(C)o2)cc1 |  | inconclusive: 16.4 µM [inhibitor, single point]
O=S(=O)(c1cccc(C(F)(F)F)c1)N1CCN(S(=O)(=O)c2ccc3c(c2)OCCO3)CC1 | inactive: 11.3% | 
CCOc1ccc(N2C(=O)Nc3ccc(Br)cc3C2(O)C(=O)NCCCN(C)C)cc1 (stereo not given) | inactive: -3.34% | 
CCN(CC)S(=O)(=O)c1ccc2c(c1)nc(SCC(=O)NCC1CCCO1)n2CC (stereo not given) | inactive: 5.74% | 
CCCn1c(=S)[nH]c2sc3c(c2c1=O)CCCC3 | inactive: -7.33% | 
CC(C)(C)C(=O)NC(n1cnc2c(N3CCOCC3)ncnc21)C(Cl)(Cl)Cl (stereo not given) |  | inconclusive: 29.1 µM [inhibitor, single point]
Cc1ccccc1NC(=O)c1ccc(F)c(S(=O)(=O)NCC2CCCO2)c1 (stereo not given) |  | inconclusive: 4.61 µM [inhibitor, full curve]
Cc1cc(C)c(C#N)c(Oc2ccccc2)n1 |  | inconclusive: 4.61 µM [activator, partial curve, poor fit]
COc1ccc(CNC(=O)C(=O)NCC2OCCN2S(=O)(=O)c2ccc3c(c2)OCCO3)cc1 (stereo not given) |  | inconclusive: 23.1 µM [inhibitor, single point]
O=C(NC(=S)Nc1ccc(Cl)cc1Cl)C1CC1 |  | inconclusive: 16.4 µM [activator, partial curve]
Cc1ccccc1Nc1nc(N)nc(CCl)n1 |  | inconclusive: 23.1 µM [inhibitor, single point]
O=C(NC1CCCc2ccccc21)c1ccc(F)cc1F (stereo not given) | inactive: -6.58% | 
O=C(NC(=S)Nc1ccc2c(c1)OCCO2)c1ccc(F)cc1Cl |  | inconclusive: 20.6 µM [activator, partial curve]
COc1ccc(CCNC(=O)CSc2nnc(-c3ccc(F)cc3)c3ccccc23)cc1OC |  | inconclusive: 25.9 µM [inhibitor, partial curve]
Cc1ccc(S(=O)(=O)Nc2ccccc2/C=N/c2nc3ccccc3n2C)cc1 |  | inconclusive: 20.6 µM [inhibitor, partial curve]
Cc1ccsc1C(=O)OCC(=O)NCc1ccccc1 |  | inconclusive: 18.3 µM [activator, partial curve]
